# Experimental data published in US20260365688A1, “STRAINED BICYCLONONENES” (TAGWORKS PHARMACEUTICALS B.V., priority 2022, published 2026).
# For at least one compound, name, drawing or mass did not settle the structure.
# Tests used:
# [1] = Second-order rate constant of IEDDA reaction of TCO with tetrazine 2.1 in MeCN by UV-Vis; format: physicochemical; settings: activator 2.1; in MeCN at 20 °C; second-order conditions
# Experimental: (§1) The second-order rate constant of the IEDDA reaction of 3,6-dimethyl-1,2,4,5-tetrazine (2.1) or 3,6-di(pyridin-2-yl)-1,2,4,5-tetrazine (2.2) and a compound of the disclosure in MeCN at 20 °C was determined by UV-Vis spectrometry under second-order reaction conditions (n=1). A cuvette was filled with a solution of 3,6-dimethyl-1,2,4,5-tetrazine or 3,6-di(pyridin-2-yl)-1,2,4,5-tetrazine (3 mL 0.083 mM in MeCN), and equilibrated at 20 °C. Next, a solution of the compound of the disclosure (10.0 μL 25 mM in acetonitrile, 2.50×10^−7 mol) was added, and the solution was quickly homogenized and inserted in the UV spectrometer. The absorption at λ=540 nm (specific for the tetrazine moiety) was measured every second in a time course experiment. From the decay of this absorption, the conversion was calculated. The second-order rate constant k2 was determined from the slope of the curve of a plot of 1/c −1/c0 versus time.
# [2] = Second-order rate constant of IEDDA reaction of TCO with tetrazine 2.2 in MeCN by UV-Vis; format: physicochemical; settings: activator 2.2; in MeCN at 20 °C; second-order conditions
# Experimental: as §1
structure (smiles),measurement,setting,value
"COC(=O)[C@@H]1[C@@H]2CC=C[C@H](O)CC[C@@H]21 (stereo in doubt) [Compound 1.6a, Methyl (1R,5R,8S,9S,E)-5-hydroxybicyclo[6.1.0]non-3-ene-9-carboxylate]",Rate constants k2,[1],15 M⁻¹ s⁻¹
same,Rate constants k2,[2],1500 M⁻¹ s⁻¹
